Assay results reported in the supplement of paper PMC8612539.
Further values from the same series stand in other lists.

System: Escherichia coli
Assay: minimum inhibitory concentration (MIC)
Method: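 Broth microdilution MIC (Sensititre BOPO7F bovine plate, CLSI methods) of 19 antimicrobials against field isolates of P. multocida, M. haemolytica, H. somni (deep nasopharyngeal swabs) and E. coli, Enterococcus spp. (rectal swabs) from weaned dairy heifers. Incubation 16-24 h at 35 C. MIC is the lowest concentration preventing visible growth. Values with <= or > lie at the tested range limits. Trimethoprim-sulfamethoxazole is given as the trimethoprim component of a 1:19 mixture.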

Measured: minimum inhibitory concentration

CCN1CCN(c2cc3c(cc2F)c(=O)c(C(=O)O)cn3C2CC2)CC1 [Enrofloxacin]
> 2 µg/mL: isolate (source animal id): 32 | isolate (source animal id): 33 | isolate (source animal id): 35 | isolate (source animal id): 39 | isolate (source animal id): 43 | isolate (source animal id): 57 | isolate (source animal id): 65 | isolate (source animal id): 86 | isolate (source animal id): 94 | isolate (source animal id): 226 | isolate (source animal id): 229 | isolate (source animal id): 246 | isolate (source animal id): 259 | isolate (source animal id): 274
1 µg/mL: isolate (source animal id): 27 | isolate (source animal id): 67 | isolate (source animal id): 92 | isolate (source animal id): 93 | isolate (source animal id): 95 | isolate (source animal id): 189 | isolate (source animal id): 212 | isolate (source animal id): 227 | isolate (source animal id): 230 | isolate (source animal id): 262 | isolate (source animal id): 331 | isolate (source animal id): 337
0.5 µg/mL: isolate (source animal id): 17 | isolate (source animal id): 25 | isolate (source animal id): 29 | isolate (source animal id): 38 | isolate (source animal id): 59 | isolate (source animal id): 199 | isolate (source animal id): 223 | isolate (source animal id): 231 | isolate (source animal id): 315
0.25 µg/mL: isolate (source animal id): 51 | isolate (source animal id): 61 | isolate (source animal id): 198 | isolate (source animal id): 200 | isolate (source animal id): 219 | isolate (source animal id): 232 | isolate (source animal id): 235 | isolate (source animal id): 275 | isolate (source animal id): 281 | isolate (source animal id): 295 | isolate (source animal id): 317
≤ 0.12 µg/mL: isolate (source animal id): 1 | isolate (source animal id): 2 | isolate (source animal id): 3 | isolate (source animal id): 4 | isolate (source animal id): 5 | isolate (source animal id): 6 | isolate (source animal id): 7 | isolate (source animal id): 18 | isolate (source animal id): 19 | isolate (source animal id): 20 | isolate (source animal id): 21 | isolate (source animal id): 22 | isolate (source animal id): 23 | isolate (source animal id): 24 | isolate (source animal id): 26 | isolate (source animal id): 28 | isolate (source animal id): 30 | isolate (source animal id): 31 | isolate (source animal id): 34 | isolate (source animal id): 36 | isolate (source animal id): 37 | isolate (source animal id): 40 | isolate (source animal id): 41 | isolate (source animal id): 42 | isolate (source animal id): 44 | isolate (source animal id): 45 | isolate (source animal id): 46 | isolate (source animal id): 47 | isolate (source animal id): 48 | isolate (source animal id): 49 | isolate (source animal id): 50 | isolate (source animal id): 52 | isolate (source animal id): 53 | isolate (source animal id): 54 | isolate (source animal id): 55 | isolate (source animal id): 56 | isolate (source animal id): 58 | isolate (source animal id): 60 | isolate (source animal id): 62 | isolate (source animal id): 63 | isolate (source animal id): 64 | isolate (source animal id): 66 | isolate (source animal id): 68 | isolate (source animal id): 69 | isolate (source animal id): 70 | isolate (source animal id): 71 | isolate (source animal id): 72 | isolate (source animal id): 73 | isolate (source animal id): 74 | isolate (source animal id): 75 | isolate (source animal id): 76 | isolate (source animal id): 77 | isolate (source animal id): 78 | isolate (source animal id): 79 | isolate (source animal id): 80 | isolate (source animal id): 81 | isolate (source animal id): 82 | isolate (source animal id): 83 | isolate (source animal id): 84 | isolate (source animal id): 85 | isolate (source animal id): 87 | isolate (source animal id): 88 | isolate (source animal id): 89 | isolate (source animal id): 90 | isolate (source animal id): 91 | isolate (source animal id): 96 | isolate (source animal id): 97 | isolate (source animal id): 190 | isolate (source animal id): 191 | isolate (source animal id): 192 | isolate (source animal id): 193 | isolate (source animal id): 194 | isolate (source animal id): 195 | isolate (source animal id): 196 | isolate (source animal id): 197 | isolate (source animal id): 201 | isolate (source animal id): 202 | isolate (source animal id): 203 | isolate (source animal id): 204 | isolate (source animal id): 205 | isolate (source animal id): 206 | isolate (source animal id): 207 | isolate (source animal id): 208 | isolate (source animal id): 209 | isolate (source animal id): 210 | isolate (source animal id): 211 | isolate (source animal id): 213 | isolate (source animal id): 214 | isolate (source animal id): 215 | isolate (source animal id): 216 | isolate (source animal id): 217 | isolate (source animal id): 218 | isolate (source animal id): 220 | isolate (source animal id): 221 | isolate (source animal id): 222 | isolate (source animal id): 224 | isolate (source animal id): 225 | isolate (source animal id): 228 | isolate (source animal id): 233 | isolate (source animal id): 234 | isolate (source animal id): 236 | isolate (source animal id): 237 | isolate (source animal id): 238 | isolate (source animal id): 239 | isolate (source animal id): 240 | isolate (source animal id): 241 | isolate (source animal id): 242 | isolate (source animal id): 243 | isolate (source animal id): 244 | isolate (source animal id): 245 | isolate (source animal id): 247 | isolate (source animal id): 248 | isolate (source animal id): 249 | isolate (source animal id): 250 | isolate (source animal id): 251 | isolate (source animal id): 252 | isolate (source animal id): 253 | isolate (source animal id): 254 | isolate (source animal id): 255 | isolate (source animal id): 256 | isolate (source animal id): 257 | isolate (source animal id): 258 | isolate (source animal id): 260 | isolate (source animal id): 261 | isolate (source animal id): 263 | isolate (source animal id): 264 | isolate (source animal id): 265 | isolate (source animal id): 266 | isolate (source animal id): 267 | isolate (source animal id): 268 | isolate (source animal id): 269 | isolate (source animal id): 270 | isolate (source animal id): 271 | isolate (source animal id): 272 | isolate (source animal id): 273 | isolate (source animal id): 276 | isolate (source animal id): 277 | isolate (source animal id): 278 | isolate (source animal id): 279 | isolate (source animal id): 280 | isolate (source animal id): 282 | isolate (source animal id): 283 | isolate (source animal id): 284 | isolate (source animal id): 285 | isolate (source animal id): 286 | isolate (source animal id): 287 | isolate (source animal id): 288 | isolate (source animal id): 289 | isolate (source animal id): 290 | isolate (source animal id): 291 | isolate (source animal id): 292 | isolate (source animal id): 293 | isolate (source animal id): 294 | isolate (source animal id): 296 | isolate (source animal id): 297 | isolate (source animal id): 298 | isolate (source animal id): 299 | isolate (source animal id): 300 | isolate (source animal id): 301 | isolate (source animal id): 302 | isolate (source animal id): 303 | isolate (source animal id): 304 | isolate (source animal id): 305 | isolate (source animal id): 306 | isolate (source animal id): 307 | isolate (source animal id): 308 | isolate (source animal id): 309 | isolate (source animal id): 310 | isolate (source animal id): 311 | isolate (source animal id): 312 | isolate (source animal id): 313 | isolate (source animal id): 314 | isolate (source animal id): 316 | isolate (source animal id): 318 | isolate (source animal id): 319 | isolate (source animal id): 320 | isolate (source animal id): 321 | isolate (source animal id): 322 | isolate (source animal id): 323 | isolate (source animal id): 324 | isolate (source animal id): 325 | isolate (source animal id): 326 | isolate (source animal id): 327 | isolate (source animal id): 328 | isolate (source animal id): 329 | isolate (source animal id): 330 | isolate (source animal id): 332 | isolate (source animal id): 333 | isolate (source animal id): 334 | isolate (source animal id): 335 | isolate (source animal id): 336 | isolate (source animal id): 338 | isolate (source animal id): 339 | isolate (source animal id): 340 | isolate (source animal id): 341
